Reference: PMC10163288
The other results are listed elsewhere or left out.

B1: il2ra_site1_3nfp_sap_13_mot_57b9a5c33dea5cc23bad37243f109f8e_0001_af2_000000027_0001_36_50_H_._490c46be001311c379c03e06fdb6e4f5_0001_1_0001_0000300028_0000001_0 … (protein)
chain: SAAEFLVRALLRHGKPPEEILRQLREIAEQNGRPPEEVLREILEVAREVGDPELEELVEKELEET
B2: il2ra_site1_2b5i_normal_mot_HHH_b1_01495_af2_000000272_0001_42_56_H_._HHH_b1_03012_0001_0000300012_0000001_0_af2pred_dldesign_0_af2pred (protein)
chain: SSSSDEEYERAYDLALEALRLKREGKKEEAKEKLEEALRLLKKLGDEKLVAEVEYLLSKLSSSSS
B3: il2ra_site2_3nfp_sap_10_mot_HHH_b1_07830_000000093_0001_36_50_H_._HHH_b2_02492_0001_0000200013_0000001_0_0001 (protein)
chain: SSSDKAEEYVRLAEELAREALEEGDPEAARRHLELAELMIESQGDEEAQERLEELLEEVERRSSS
B4: il2ra_site2_2erj_normal_mot_HHH_b2_00484_af2_000000139_0001_42_55_H_._HHH_b1_00676_0001_0000600026_0000001_0 (protein)
chain: SSSSSDYEEIARRVSELLAELAHASEEERRRLLEEARELAEELNSPFLERYVEHARRHASSSSSS
B5: il2ra_site1_1z92_sap_26_mot_a6fd39a3fea750eb5223871b70f163d0_0001_af2_000000011_0001_17_33_H_._HHH_b2_07469_0001_0000200014_0000001_0_0001_af2pred_0001_af2pred_ … (protein)
chain: DELERLIEEILEELKKRDPQMEWAIRIIEKALKRDPRQAAKLLLRFLRNAGDPELVKELEELLRK
B6: il2ra_site1_2b5i_normal_mot_f5ff40796168375b462bec8614a1db4a_0001_1_000000138_0001_53_65_H_._HHH_b2_01775_0001_0000200012_0000001_0_af2pred_0001_af2pred_1 (protein)
chain: SSSSSTDAEHNIEALIEEAKKIEDPERARNILFLALAIARKKNNEELAEEIEELLEELDSSSSSS
B7: il2ra_site1_1z92_normal_mot_HHH_b2_05172_af2_000000284_0001_1_18_H_._HHH_b1_04814_0001_0000100013_0000001_0 (protein)
chain: SSSDYEVQEELAQIISRLVAEFGLDLEQIKKLDELARELEERGVSLEEIEELLEELAEELKSSSS
B8: il2ra_site2_2erj_normal_mot_HHH_b2_06291_af2_000000033_0001_23_39_H_._HHH_b2_06475_0001_0000500037_0000001_0_af2pred_0001_1_af2pred_swapped (protein)
chain: SSSSSEAEEAFELARELVEEGDLRRAAAVAVRAAAAALEEGDEELLKQIRKLYAELAELLRSSSS
B9: il2ra_site1_3nfp_sap_9_mot_HHH_b1_04931_000000291_0001_38_56_H_._HHH_b2_06296_af2_0001_0000400019_0000001_0_0001_af2pred_0001_af2pred_swapped (protein)
chain: SSSSSHSREFERLAKEASELLKKGDPEKVEELLERLREIAEEANSPNAKEFVERLERLIKSSSSS
B10: il2ra_site1_2b5i_sap_29_mot_21795611afd35a64f51a6f0208d15af2_0001_af2_000000256_0001_37_51_H_._e3696887754c6fba9273a780f7a942e0_0001_0001_0000700056_0000001_1_0 … (protein)
chain: SSSSSSARARELLLRAEAALKAGNREELARLLAELEALAEARNSRFARRALELLREALSSSSSSS
B11: il2ra_site2_2erj_normal_mot_HHH_b1_02757_000000121_0001_41_57_H_._HHH_b1_00883_0001_0000100001_0000001_0_af2pred_0001_1_af2pred_swapped (protein)
chain: SSSSSSSDEEEVEELLEEAKKIKDPREALKLLQEAAQIADENDNDELIKLIDELLQESSSSSSSS
B12: il2ra_site2_3nfp_sap_16_mot_HHH_b1_04084_000000061_0001_23_39_H_._HHH_b1_01148_af2_0001_0000100002_0000001_0_0001_af2pred_0001_1_af2pred_swapped (protein)
chain: PDWELVEEVAKILGDPQFRSIVFAAVAELVFKGDEEELKKISEKLKEIVEKNDPELARELLEELK
B13: il2ra_site1_2b5i_normal_mot_22370d59370c406a0c205a431f537cfa_0001_af2_000000027_0001_1_31_H_._HHH_b2_08220_af2_0001_0000400025_0000001_0_af2pred_dldesign_0_af2p … (protein)
chain: SSSSNKKELAKFAADLVDELADKYKLDSERANALDRLAAELVWKGYSKEEIRERLTAEALKSSSS
B14: il2ra_site2_3nfp_sap_20_mot_HHH_b1_01964_000000000_0001_19_36_H_._HHH_b2_06110_0001_0000100001_0000001_0_0001 (protein)
chain: SSSSDVVERAAEVALEVAAIAWRRNDEEVYLEVSRLFYRIQQEGDPELLEELEELLEELRSSSSS
B15: il2ra_site1_1z92_sap_16_mot_HHH_b2_06572_000000077_0001_1_17_H_._HHH_b2_02272_af2_0001_0000100011_0000001_0_0001_af2pred_0001_af2pred_1 (protein)
chain: DVEEEIERALRELGVPPEEIEAVKRDFRRALEAGIPPEQVLRVLIRAARREGNEELTEALELVLK
B16: il2ra_site2_2erj_normal_mot_HHH_b1_02968_000000142_0001_22_39_H_._HHH_b2_01127_af2_0001_0000200010_0000001_0 (protein)
chain: SSSSSDTEEEVEQILEEAREAYEKGDLERVYELAVEALRLASENRDEEAQKLVLEVAEKLSSSSS
B17: il2ra_site2_2erj_sap_21_mot_HHH_b1_02566_000000063_0001_42_58_H_._HHH_b1_01323_0001_0000100006_0000001_0_0001 (protein)
chain: SSSSSDLHELYKLAVRILALLAEGDEEEARELIEELEELAKRTDSENVKELVEFLKKKVNSSSSS
B18: il2ra_site2_2erj_normal_mot_HHH_b1_03107_000000098_0001_39_52_H_._HHH_b1_04663_0001_0001000032_0000001_0 (protein)
chain: SSSSDEEWRRIAELLAEALRLFKEGNPEEVRKILEEAHELAEEANSEELKRYVEFAHRDASSSSS
B19: il2ra_site1_3nfp_normal_mot_1cd86ef9f1587ae5d14d35bbbd8e7f1d_0001_1_000000087_0001_34_49_H_._HHH_b1_03653_af2_0001_0000200011_0000001_0 (protein)
chain: SSSSDEEAEELFKEIHERLEELLKRGDSHEAARLADEAIRELARLGDPELAQELLRRAFELSSSS
B20: il2ra_site1_2b5i_sap_13_mot_HHH_b2_06557_000000199_0001_42_56_H_._HHH_b1_06086_0001_0000100006_0000001_0_0001_af2pred_dldesign_0_af2pred (protein)
chain: SSSSSLTKEALEKFLEADRLRKAGKPEEAKRLLEEALRLAEKAKAATLAKAIRNALKDLESSSSS
B21: il2ra_site1_2b5i_sap_23_mot_4a280d29898c52388955dd985fe9baac_0001_af2_000000024_0001_35_51_H_._35d2dc24e2c4431f89e6f806b163ecf8_0001_0001_0000400035_0000001_0_0 … (protein)
chain: SFEELLARYEEKYKDDEVAIEFLNALRKLYEHTGNPELAIRSLLKLAKKAGDEKTVALAEELLEE
B22: il2ra_site1_1z92_normal_mot_HHH_b2_04965_af2_000000085_0001_3_17_H_._HHH_b1_08099_af2_0001_0000100007_0000001_0 (protein)
chain: SSSSSDFRELDRLVVELAEKFGLDHEQEHILLRVASRLLTKGVSEEEIEEILEEVAKELSSSSSS
B23: il2ra_site1_1z92_sap_13_mot_b4c6f5f17c500cb19b718c065e23fe7c_0001_1_000000266_0001_37_51_H_._a32f4d7c6847e2a44289f3a838988b97_0001_af2_0001_0000100002_0000001_0 … (protein)
chain: SSSSSSSRLELIEELLRALKEGDEELVRELLEELKRLAEETNTKSAKRMAEMVEEELGSSSSSSS
B24: il2ra_site1_1z92_normal_mot_HHH_b1_00108_af2_000000035_0001_38_51_H_._HHH_b1_06180_af2_0001_0000100008_0000001_0_af2pred_0001_af2pred (protein)
chain: SSSSSSDEFEEIDELYKQASKIKDPEERKEVLEEALELAERLGDESAQKDIRRYLRRISSSSSSS

Target: il2ra, P01589
Test: yeast display titration

Row | Binder | apparent Kd
1 | B1 | inactive: no binding seen
2 | B2 | inactive: no binding seen
3 | B3 | inactive: no binding seen
4 | B4 | inactive: no binding seen
5 | B5 | inactive: no binding seen
6 | B6 | inactive: no binding seen
7 | B7 | inactive: no binding seen
8 | B8 | inactive: no binding seen
9 | B9 | inactive: no binding seen
10 | B10 | inactive: no binding seen
11 | B11 | inactive: no binding seen
12 | B12 | inactive: no binding seen
13 | B13 | inactive: no binding seen
14 | B14 | inactive: > 940 nM
15 | B15 | inactive: no binding seen
16 | B16 | inactive: no binding seen
17 | B17 | inactive: no binding seen
18 | B18 | inactive: no binding seen
19 | B19 | inactive: no binding seen
20 | B20 | inactive: no binding seen
21 | B21 | inactive: no binding seen
22 | B22 | inactive: no binding seen
23 | B23 | inactive: no binding seen
24 | B24 | inactive: no binding seen

2 entries drawn at random from those above:
Row | Binder | apparent Kd
8 | B8 | inactive: no binding seen
11 | B11 | inactive: no binding seen
